The source of these data is article doi:10.64898/2025.12.01.691470.

These are yes or no findings as the source states them, for the method shown. In cells and extracts the contact can be indirect. Here binding means that the protein was enriched with, or labelled near, the bait; the list need not be complete. Tags and fused reporters may be left off the sequences shown.

The labels stand for the following.
B1: TCF7L1 (protein, UniProt Q9Z1J1 1-584)
chain: MPQLGGGRGGAGGGGGGSGAGATSGGDDLGANDELIPFQDEGGEEQEPSSDTASAQRDLDEVKSSLVNESENQSSSSDSEAERRPQPARDAFQKPRDYFAEVRRPQDGAFFKGGAYPGYPFLMIPDLSSPYLSNGPLSPGGARTYLQMKWPLLDVPSSATVKDTRSPSPAHLSNKVPVVQHPHHMHPLTPLITYSNDHFSPASPPTHLSPEIDPKTGIPRPPHPSELSPYYPLSPGAVGQIPHPLGWLVPQQGQPMYSLPPGGFRHPYPALAMNASMSSLVSSRFPHMVAPAHPGLPTSGIPHPAIVSPIVKQEPAAPSLSPAVSAKSPVTVKKEEEKKPHVKKPLNAFMLYMKEMRAKVVAECTLKESAAINQILGRKWHNLSREEQAKYYELARKERQLHAQLYPTWSARDNYGKKKKRKREKQLSQTQSQQQIQEAEGALASKSKKPCIQYLPPEKPCDSPASSHGSALDSPATPSAALASPAAPAATHSEQAQPLSLTTKPEARAQLALHSAAFLSAKAAASNSSQMGSQPPLLSRPLPLGSMPAALLTSPPTFPATLHAHQALPVLQAQPLSLVTKSAH
B2: FRA2 (protein, UniProt P47930 1-326)
chain: MYQDYPGNFDTSSRGSSGSPAHAESYSSGGGGQQKFRVDMPGSGSAFIPTINAITTSQDLQWMVQPTVITSMSNPYPRSHPYSPLPGLASVPGHMALPRPGVIKTIGTTVGRRRRDEQLSPEEEEKRRIRRERNKLAAAKCRNRRRELTEKLQAETEELEEEKSGLQKEIAELQKEKEKLEFMLVAHGPVCKISPEERRSPPTSGLQSLRGTGSAVGPVVVKQEPPEEDSPSSSAGMDKTQRSVIKPISIAGGGFYGEEPLHTPIVVTSTPAITPGTSNLVFTYPNVLEQESPSSPSESCSKAHRRSSSSGDQSSDSLNSPTLLAL
B3: CAST (protein, UniProt P51125 1-788)
chain: MSQPGPKPAASPRPSRGAAARHTQEHVNEKNIGSSSKPGEKKGSDEKKAASLGSSQPSRPHVGEAATATKVTASSAATSKSPSMSTTETKAIPVNKQLEGPDQKRPREQAVKTESKKPQSSEQPVVHEKKSKGGPKEGSEPKNLPKHTSSTGSKHAHKEKALSRSNEQMVSEKPSESKTKFQDVPSAGGESVAGGGTVATALDKVVGKKKEQKPFTPASPVQSTPSKPSDKSGMDAALDDLIDTLGGHEDTNRDDPPYTGPVVLDPMYSTYLEALGIKEGTIPPEYRKLLEKNEGITQPLPDSPKPMGTDQAIDALSSDFTCSSPTGKQSEKEKSTGEIFKAQSAGVTRSSVPPKEKKRKVEEEVINDQALQALSDSLGTRQPDPPSHVSQAEQVKEAKAKEERQEKCGEDEDTVPAEYRLKPAKDKDGKPLLPEPEETSKSLSESELIGELSADFDRSTYQDKPSTPAEKKSNDTSQTPPGETVPRASMCSIRSAPPKLASLKGVVPEDAVETLAGSLGTREADPEHEKTVEDKVKEKAKEEEHEKLGEKEETVPPDYRLEEVKDKDGKPLLPKESQEQLAPLSDDFLLDALSQDFSSPANISSLEFEDAKLSAAISEVVSQTPAPSTHAAAPLPGTEQKDKELDDALDELSDSLGQRPPDPDENKPLDDKVKEKIKPEHSEKLGERDDTIPPEYRHLLDNDGKDKPEKPPTKKTEKPDQDRDPIDALSEDLDSCPSTTETSKNTAKGKSKKTSSSKASKDGEKTKDSSKKTEEVSKPKAKEDARHS
B4: STBD1 (protein, UniProt Q8C7E7 1-338)
chain: MGAVWSALLVGGGLAGALILWLLRGDSGAPGKDGVAEPPQKGAPPGEAAAPGDGPGGGGSGGLSPEPSDRELVSKAEHLRESNGHLISESKDLGNLPEAQRLQNVGADWVNAREFVPVGKIPDTHSRADSEAARNQSPGSHGGEWRLPKGQETAVKVAGSVAAKLPSSSLLVDRAKAVSQDQAGHEDWEVVSRHSSWGSVGLGGSLEASRLSLNQRMDDSTNSLVGGRGWEVDGKVASLKPQQVSIQFQVHYTTNTDVQFIAVTGDHESLGRWNTYIPLHYCKDGLWSHSVFLPADTVVEWKFVLVENKEVTRWEECSNRFLQTGHEDKVVHGWWGIH
B5: glycogenin (GYG1) (protein, UniProt Q9R062 1-333)
chain: MTDQAFVTLTTNDAYAKGALVLGSSLKQHRTTRRMVVLTSPQVSDSMRKVLETVFDDVIMVDVLDSGDSAHLTLMKRPELGITLTKLHCWSLTQYSKCVFMDADTLVLSNIDDLFEREELSAAPDPGWPDCFNSGVFVYQPSIETYNQLLHLASEQGSFDGGDQGLLNTYFSGWATTDITKHLPFVYNLSSISIYSYLPAFKAFGKNAKVVHFLGRTKPWNYTYNPQTKSVNCDSQDPTVSHPEFLNLWWDTFTTNVLPLLQHHGLVKDASSYLMMEHVSGALSDLSFGEAPAAPQPSMSSEERKERWEQGQADYMGADSFDNIKRKLDTYLQ
B6: JPT1 (protein, UniProt P97825 1-154)
chain: MTTTTTFKGVDPNSRNSSRVLRPPGGGSNFSLGFDEPAEQPVRKNKMASNIFGTPEENPPSWAKSAGSKSSGGREDSESPGTQRSNSSEASSGDFLDLKGEGDMHENVDTDFQANLAQMEEKPVPAAPVPSPVAPAPVPSRRNPPGGKSSLVLG

This experiment concerns the target T1, HA-tagged GYS1-TbID gene fusion construct (glycogen synthase 1 fused to the biotin ligase TurboID) (UniProt Q9Z1E4).
T1 sequence: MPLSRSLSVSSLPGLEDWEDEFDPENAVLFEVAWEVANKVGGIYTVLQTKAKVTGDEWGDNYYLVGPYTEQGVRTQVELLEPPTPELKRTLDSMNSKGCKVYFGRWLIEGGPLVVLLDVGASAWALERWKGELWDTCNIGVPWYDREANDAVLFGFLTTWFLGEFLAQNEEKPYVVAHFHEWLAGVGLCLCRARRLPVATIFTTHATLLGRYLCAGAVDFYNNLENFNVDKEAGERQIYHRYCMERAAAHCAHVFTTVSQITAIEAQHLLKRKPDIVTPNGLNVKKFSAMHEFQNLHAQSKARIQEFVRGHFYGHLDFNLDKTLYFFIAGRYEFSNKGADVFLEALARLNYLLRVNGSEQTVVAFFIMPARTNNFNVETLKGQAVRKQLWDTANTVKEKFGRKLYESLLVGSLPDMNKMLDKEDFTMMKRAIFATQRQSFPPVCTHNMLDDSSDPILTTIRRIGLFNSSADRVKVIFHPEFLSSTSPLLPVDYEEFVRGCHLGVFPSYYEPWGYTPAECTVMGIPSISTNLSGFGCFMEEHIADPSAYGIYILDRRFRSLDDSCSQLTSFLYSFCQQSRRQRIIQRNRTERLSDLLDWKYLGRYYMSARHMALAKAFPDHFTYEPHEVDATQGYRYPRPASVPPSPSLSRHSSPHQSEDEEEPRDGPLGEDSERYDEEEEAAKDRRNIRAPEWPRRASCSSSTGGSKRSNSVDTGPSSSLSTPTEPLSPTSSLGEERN
Put plainly: proximity labelling.
With YAP1 (from UniProt P46938 1-488), the binding result is recorded as “binds”.

Turning to WDR45B (from UniProt Q9CR39 1-344), the binding entry is recorded as “binds”.

As for “Forkhead box O1 (FoxO1) (from UniProt Q9R1E0 1-652)”, the binding entry is on record as “binds”.

For EIF4G3 (from UniProt Q80XI3 1-1579), the binding entry is on record as “binds”.

Regarding “PP1 (mouse (endogenous in pre-BAT cells)) (enzyme)”, the binding result is on record as “binds”.

On to CCDC102A (from UniProt Q3TMW1 1-549), for which the binding result is “binds”.

Turning to B1, the binding result is on record as “binds”.

Regarding B2, the binding result is given as “binds”.

B3: the binding result is recorded as “binds”.

In the case of B4, the binding result is “binds”.

As to B5, the binding entry is “binds”.

In the case of B6, the binding entry was “binds”.
